PubChem BioAssay AID1259308, NCATS | 2017

- Screen: 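Genes whose loss raises luciferase production in HEK293 cells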 (primary screen)
- System: human HEK293 embryonic kidney cells stably expressing firefly luciferase (HEK-CMV-Luc2-Hygro)
- Reagent: single siRNA against human genes, 0.8 pmol siRNA per well
- Timing: 72 h
- Measurement: 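Luciferase light (ONE-Glo) measured on one replicate plate set and viability (CellTiter-Glo) on the other, scaled to a negative control siRNA, with robust z-scores and luciferase per cell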
- Direction: total luciferase, z-score and total luciferase, % of control: higher = more reporter protein produced; luciferase per cell, z-score: higher = more reporter output per viable cell; viable cells, % of control: higher = more viable cells
- Hit rule: 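An siRNA counts as active if its total luciferase robust z-score exceeds 3; genes with two or more such siRNAs out of three were retested with fresh siRNAs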
- Meaning of the calls: active = raised luciferase; inactive = no rise
Here is one part, drawn at random, of about 59,000 reagents tested. Of all reagents, about 1,510 (2.6%) were called active. 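Calls use total luciferase alone and ignore viability, so some active siRNAs may act by altering cell number.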 Reagents against one gene are numbered here.

The first 3 entries as a preview:
Target gene	reagent no.	total luciferase, z-score	total luciferase, % of control	luciferase per cell, z-score	viable cells, % of control	outcome
TIMM8B (translocase of inner mitochondrial membrane 8 homolog B)	1	0.124	84.3	0.0281	93.6	inactive
TIMM8B (translocase of inner mitochondrial membrane 8 homolog B)	2	-1.22	57.7	-0.672	76.9	inactive
TIMM8B (translocase of inner mitochondrial membrane 8 homolog B)	3	0.2	85.9	0.551	83	inactive

Main list, from the start:
Target gene	reagent no.	total luciferase, z-score	total luciferase, % of control	luciferase per cell, z-score	viable cells, % of control	outcome
TIMM8B (translocase of inner mitochondrial membrane 8 homolog B)	1	0.124	84.3	0.0281	93.6	inactive
TIMM8B (translocase of inner mitochondrial membrane 8 homolog B)	2	-1.22	57.7	-0.672	76.9	inactive
TIMM8B (translocase of inner mitochondrial membrane 8 homolog B)	3	0.2	85.9	0.551	83	inactive
HSF1 (heat shock transcription factor 1)	1	2.89	139	1.89	94.6	inactive
HSF1 (heat shock transcription factor 1)	2	-0.634	69.3	-1.09	103	inactive
HSF1 (heat shock transcription factor 1)	3	0.854	98.9	0.973	85.5	inactive
C11orf65 (chromosome 11 open reading frame 65)	1	-0.18	78.3	-0.951	112	inactive
C11orf65 (chromosome 11 open reading frame 65)	2	0.479	91.4	1.87	62.5	inactive
C11orf65 (chromosome 11 open reading frame 65)	3	0.309	88	-0.52	113	inactive
ATOX1 (antioxidant 1 copper chaperone)	1	-0.00724	81.7	0.197	86.7	inactive
ATOX1 (antioxidant 1 copper chaperone)	2	-0.618	69.6	0.0485	76.8	inactive
ATOX1 (antioxidant 1 copper chaperone)	3	0.125	84.4	-0.0793	96.3	inactive
TBL1Y (transducin beta like 1 Y-linked)	1	0.776	97.3	0.596	93	inactive
TBL1Y (transducin beta like 1 Y-linked)	2	1.66	115	1.56	85.1	inactive
TBL1Y (transducin beta like 1 Y-linked)	3	-2.13	39.5	-1.89	72.5	inactive
HAUS7 (HAUS augmin like complex subunit 7)	1	-0.145	79	0.0363	87.4	inactive
HAUS7 (HAUS augmin like complex subunit 7)	2	2.94	140	2.35	84.5	inactive
HAUS7 (HAUS augmin like complex subunit 7)	3	-1.04	61.1	-0.927	87.2	inactive
AKAP17A (A-kinase anchoring protein 17A)	1	-0.385	74.2	-1.37	119	inactive
AKAP17A (A-kinase anchoring protein 17A)	2	1.98	121	1.14	100	inactive
AKAP17A (A-kinase anchoring protein 17A)	3	-1.56	50.9	-1.31	80.3	inactive
SEC14L3 (SEC14 like lipid binding 3)	1	-0.48	72.3	-0.874	102	inactive
SEC14L3 (SEC14 like lipid binding 3)	2	-0.781	66.4	-0.732	89.9	inactive
SEC14L3 (SEC14 like lipid binding 3)	3	-0.66	68.8	-1.11	103	inactive
